# Measured values published in the supplement of paper PMC12595434, “Development of retinoid nuclear receptor pathway antagonists through targeting aldehyde dehydrogenase 1A3” (iScience, 2025).
# The chains behind the UniProt entries cited, without tags or fusion partners. Where a name states a change or a piece, a line headed by the entry shows the natural chain unless it says otherwise.
# UniProt Q9H2P0: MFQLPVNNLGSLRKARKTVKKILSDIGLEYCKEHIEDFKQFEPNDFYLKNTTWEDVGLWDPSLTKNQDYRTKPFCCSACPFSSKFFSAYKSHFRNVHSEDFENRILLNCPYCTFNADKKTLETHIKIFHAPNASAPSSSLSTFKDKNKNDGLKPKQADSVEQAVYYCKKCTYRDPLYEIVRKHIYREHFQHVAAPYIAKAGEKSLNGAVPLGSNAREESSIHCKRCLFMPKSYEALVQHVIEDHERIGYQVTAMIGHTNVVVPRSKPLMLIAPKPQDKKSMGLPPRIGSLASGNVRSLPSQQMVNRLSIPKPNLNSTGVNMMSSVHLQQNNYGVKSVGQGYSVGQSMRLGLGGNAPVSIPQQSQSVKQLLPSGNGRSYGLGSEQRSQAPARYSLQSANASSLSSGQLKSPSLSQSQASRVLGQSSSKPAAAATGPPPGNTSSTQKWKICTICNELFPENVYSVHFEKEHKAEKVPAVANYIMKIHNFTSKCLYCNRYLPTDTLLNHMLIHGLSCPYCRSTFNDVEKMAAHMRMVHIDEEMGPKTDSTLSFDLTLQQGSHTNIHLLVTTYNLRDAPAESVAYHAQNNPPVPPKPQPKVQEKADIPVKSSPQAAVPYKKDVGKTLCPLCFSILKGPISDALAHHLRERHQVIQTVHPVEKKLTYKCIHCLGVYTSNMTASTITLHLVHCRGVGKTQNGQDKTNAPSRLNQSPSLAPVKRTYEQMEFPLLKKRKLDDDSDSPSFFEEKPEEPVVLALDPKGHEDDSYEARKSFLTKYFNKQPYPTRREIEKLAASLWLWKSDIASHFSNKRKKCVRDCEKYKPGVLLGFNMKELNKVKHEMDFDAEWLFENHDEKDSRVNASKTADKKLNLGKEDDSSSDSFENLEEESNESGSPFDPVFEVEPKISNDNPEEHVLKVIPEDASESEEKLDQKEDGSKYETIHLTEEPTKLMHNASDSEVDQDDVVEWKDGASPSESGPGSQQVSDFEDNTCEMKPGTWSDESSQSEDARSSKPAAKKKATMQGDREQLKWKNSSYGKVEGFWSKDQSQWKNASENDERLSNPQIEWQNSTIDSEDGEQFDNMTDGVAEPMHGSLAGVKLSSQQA
# UniProt Q9H0A8, whole entry: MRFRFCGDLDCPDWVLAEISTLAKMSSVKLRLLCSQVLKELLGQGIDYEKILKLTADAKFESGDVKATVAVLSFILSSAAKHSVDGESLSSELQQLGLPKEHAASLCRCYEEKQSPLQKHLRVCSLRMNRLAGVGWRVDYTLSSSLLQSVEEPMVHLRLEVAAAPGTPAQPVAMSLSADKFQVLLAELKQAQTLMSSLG
# UniProt Q9H7B2: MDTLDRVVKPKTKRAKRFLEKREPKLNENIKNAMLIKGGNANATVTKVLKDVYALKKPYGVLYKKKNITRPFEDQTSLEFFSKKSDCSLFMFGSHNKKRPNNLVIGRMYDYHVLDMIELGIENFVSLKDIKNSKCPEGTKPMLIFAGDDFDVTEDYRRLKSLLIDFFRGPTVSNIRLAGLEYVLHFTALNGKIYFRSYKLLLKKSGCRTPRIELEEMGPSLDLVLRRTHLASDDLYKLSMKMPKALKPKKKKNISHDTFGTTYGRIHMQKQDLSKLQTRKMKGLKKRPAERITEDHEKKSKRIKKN
# UniProt Q9GZP4: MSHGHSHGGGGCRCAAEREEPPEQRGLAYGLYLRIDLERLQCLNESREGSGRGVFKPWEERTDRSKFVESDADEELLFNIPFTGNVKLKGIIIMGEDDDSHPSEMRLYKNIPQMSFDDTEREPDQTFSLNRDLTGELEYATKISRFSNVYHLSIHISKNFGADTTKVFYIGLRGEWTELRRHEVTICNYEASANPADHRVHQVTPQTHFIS
# UniProt Q9H0R4: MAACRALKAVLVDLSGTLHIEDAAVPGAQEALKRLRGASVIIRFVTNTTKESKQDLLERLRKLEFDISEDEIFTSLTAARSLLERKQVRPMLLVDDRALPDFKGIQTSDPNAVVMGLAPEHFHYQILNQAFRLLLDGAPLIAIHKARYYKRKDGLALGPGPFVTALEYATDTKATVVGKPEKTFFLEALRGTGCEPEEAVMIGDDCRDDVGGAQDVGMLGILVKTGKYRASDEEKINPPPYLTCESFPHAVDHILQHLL
# UniProt Q9H694: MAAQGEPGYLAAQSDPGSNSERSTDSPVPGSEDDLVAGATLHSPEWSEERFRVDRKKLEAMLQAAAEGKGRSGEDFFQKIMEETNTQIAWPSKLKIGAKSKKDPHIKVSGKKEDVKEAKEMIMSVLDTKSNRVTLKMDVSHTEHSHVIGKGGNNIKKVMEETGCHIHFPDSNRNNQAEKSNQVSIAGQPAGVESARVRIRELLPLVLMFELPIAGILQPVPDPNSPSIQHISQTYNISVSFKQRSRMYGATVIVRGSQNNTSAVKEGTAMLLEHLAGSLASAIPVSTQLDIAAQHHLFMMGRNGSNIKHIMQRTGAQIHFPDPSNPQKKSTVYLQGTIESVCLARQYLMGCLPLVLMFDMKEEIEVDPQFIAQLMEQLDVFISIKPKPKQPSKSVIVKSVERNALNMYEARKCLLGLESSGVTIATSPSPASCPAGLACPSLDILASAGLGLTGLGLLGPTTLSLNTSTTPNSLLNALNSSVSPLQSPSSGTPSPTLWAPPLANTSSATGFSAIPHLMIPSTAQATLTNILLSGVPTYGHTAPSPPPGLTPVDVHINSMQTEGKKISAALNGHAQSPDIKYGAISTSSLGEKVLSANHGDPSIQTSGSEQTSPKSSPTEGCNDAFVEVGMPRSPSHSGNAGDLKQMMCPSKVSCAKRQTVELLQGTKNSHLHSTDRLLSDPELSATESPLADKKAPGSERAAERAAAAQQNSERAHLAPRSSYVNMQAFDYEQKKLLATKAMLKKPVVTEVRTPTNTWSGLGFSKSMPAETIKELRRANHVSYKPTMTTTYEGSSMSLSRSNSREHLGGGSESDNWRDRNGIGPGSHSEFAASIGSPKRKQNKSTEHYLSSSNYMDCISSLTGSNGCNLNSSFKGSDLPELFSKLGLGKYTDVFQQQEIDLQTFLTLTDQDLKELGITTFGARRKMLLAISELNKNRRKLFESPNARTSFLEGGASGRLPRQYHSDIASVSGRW
# UniProt Q9H3U1: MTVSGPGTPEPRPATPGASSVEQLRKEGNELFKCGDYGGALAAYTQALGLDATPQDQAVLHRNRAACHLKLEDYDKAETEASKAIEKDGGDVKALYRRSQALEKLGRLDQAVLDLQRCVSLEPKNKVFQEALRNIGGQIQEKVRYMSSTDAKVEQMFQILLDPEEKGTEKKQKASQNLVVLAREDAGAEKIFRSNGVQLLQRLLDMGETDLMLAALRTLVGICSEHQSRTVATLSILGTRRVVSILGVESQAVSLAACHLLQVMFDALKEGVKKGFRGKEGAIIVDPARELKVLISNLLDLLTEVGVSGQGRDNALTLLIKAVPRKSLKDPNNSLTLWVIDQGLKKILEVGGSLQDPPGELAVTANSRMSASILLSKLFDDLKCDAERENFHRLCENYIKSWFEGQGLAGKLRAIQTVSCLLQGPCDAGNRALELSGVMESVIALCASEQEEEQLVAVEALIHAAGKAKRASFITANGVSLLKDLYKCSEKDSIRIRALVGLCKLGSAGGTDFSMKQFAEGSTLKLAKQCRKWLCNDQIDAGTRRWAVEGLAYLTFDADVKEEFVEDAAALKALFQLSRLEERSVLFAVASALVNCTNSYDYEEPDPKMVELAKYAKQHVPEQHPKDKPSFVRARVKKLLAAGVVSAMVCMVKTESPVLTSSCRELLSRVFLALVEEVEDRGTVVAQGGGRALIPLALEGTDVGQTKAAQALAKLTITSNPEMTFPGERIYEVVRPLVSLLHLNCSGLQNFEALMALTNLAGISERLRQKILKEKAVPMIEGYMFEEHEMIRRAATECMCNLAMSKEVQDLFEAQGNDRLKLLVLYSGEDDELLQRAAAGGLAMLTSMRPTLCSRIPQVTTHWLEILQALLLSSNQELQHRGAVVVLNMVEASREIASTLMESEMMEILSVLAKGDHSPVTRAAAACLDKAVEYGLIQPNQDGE
# UniProt Q9H2G4: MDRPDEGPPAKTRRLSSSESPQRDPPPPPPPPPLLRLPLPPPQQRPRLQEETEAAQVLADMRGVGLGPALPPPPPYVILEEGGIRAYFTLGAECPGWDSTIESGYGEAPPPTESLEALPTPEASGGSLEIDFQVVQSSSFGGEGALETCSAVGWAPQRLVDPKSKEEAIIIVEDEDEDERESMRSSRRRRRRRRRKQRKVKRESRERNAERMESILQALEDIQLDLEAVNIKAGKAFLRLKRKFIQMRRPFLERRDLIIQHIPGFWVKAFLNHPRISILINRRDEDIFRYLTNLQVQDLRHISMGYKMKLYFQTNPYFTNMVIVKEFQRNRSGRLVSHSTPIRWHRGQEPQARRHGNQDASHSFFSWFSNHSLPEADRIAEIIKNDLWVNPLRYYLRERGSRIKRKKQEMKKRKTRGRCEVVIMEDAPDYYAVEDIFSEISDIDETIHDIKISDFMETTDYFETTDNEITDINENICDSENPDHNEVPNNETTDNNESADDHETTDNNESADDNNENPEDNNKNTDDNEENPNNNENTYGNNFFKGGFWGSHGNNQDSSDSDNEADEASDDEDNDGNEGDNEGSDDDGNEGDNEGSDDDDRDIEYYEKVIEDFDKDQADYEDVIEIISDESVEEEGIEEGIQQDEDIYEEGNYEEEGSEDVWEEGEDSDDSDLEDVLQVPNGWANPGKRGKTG
# UniProt Q9H267: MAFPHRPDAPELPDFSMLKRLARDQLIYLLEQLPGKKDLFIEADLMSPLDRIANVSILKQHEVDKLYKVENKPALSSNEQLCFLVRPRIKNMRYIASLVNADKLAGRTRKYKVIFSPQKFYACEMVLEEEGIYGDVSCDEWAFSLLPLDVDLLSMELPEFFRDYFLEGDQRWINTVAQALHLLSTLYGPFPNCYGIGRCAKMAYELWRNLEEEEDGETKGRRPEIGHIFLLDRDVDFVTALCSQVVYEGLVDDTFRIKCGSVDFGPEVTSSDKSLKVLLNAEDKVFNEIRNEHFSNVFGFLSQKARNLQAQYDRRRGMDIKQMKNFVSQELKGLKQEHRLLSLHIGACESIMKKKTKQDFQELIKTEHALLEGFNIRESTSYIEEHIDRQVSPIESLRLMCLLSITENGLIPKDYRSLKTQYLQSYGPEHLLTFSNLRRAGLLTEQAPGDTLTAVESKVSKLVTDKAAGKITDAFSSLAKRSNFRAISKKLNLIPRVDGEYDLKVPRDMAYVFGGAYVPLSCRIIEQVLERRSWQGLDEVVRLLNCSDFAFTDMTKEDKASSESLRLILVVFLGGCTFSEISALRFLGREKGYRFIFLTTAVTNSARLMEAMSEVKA
# UniProt Q9H7X7: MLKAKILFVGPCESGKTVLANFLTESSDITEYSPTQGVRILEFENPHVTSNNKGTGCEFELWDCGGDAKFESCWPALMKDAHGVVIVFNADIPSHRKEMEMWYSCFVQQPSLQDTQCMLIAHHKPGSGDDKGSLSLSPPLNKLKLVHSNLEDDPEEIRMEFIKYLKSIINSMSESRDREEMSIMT
# UniProt Q9H2U1: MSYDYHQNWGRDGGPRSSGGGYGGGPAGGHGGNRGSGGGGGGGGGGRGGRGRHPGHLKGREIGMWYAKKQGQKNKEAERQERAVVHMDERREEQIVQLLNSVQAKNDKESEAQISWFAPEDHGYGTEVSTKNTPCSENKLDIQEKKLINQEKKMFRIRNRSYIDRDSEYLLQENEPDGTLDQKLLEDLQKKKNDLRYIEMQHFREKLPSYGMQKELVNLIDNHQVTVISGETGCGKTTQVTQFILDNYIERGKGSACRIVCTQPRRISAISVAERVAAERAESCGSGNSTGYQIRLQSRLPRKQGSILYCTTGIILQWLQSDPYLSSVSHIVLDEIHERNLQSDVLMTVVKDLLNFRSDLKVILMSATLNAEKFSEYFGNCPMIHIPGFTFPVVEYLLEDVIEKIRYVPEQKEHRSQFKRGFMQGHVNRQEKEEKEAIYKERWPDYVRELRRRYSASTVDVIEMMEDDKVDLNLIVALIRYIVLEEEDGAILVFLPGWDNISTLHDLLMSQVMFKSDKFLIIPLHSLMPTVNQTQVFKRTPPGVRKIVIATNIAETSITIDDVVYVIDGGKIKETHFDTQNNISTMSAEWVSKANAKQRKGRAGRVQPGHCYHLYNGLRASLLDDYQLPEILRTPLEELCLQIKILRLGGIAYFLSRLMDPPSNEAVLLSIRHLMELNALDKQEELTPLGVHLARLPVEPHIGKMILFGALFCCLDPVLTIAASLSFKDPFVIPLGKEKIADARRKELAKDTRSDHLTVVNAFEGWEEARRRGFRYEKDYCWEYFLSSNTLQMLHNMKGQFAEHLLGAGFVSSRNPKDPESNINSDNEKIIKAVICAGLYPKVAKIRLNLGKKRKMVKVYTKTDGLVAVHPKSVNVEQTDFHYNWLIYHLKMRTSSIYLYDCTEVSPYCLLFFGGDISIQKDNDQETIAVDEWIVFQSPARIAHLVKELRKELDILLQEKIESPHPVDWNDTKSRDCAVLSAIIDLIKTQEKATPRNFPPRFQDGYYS
# The list shows a part of the results. Single values of this set are uncertain.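 Tm was set to 64 °C where no melting was found, and many curves are irregular.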
# Compound: CCc1cnccc1C(=O)Nc1cc2c(cc1F)NC(=O)CC2
# Experiment: melting temperature shift (DMSO Tm minus MBE1-treated Tm) in cellular thermal proteome profiling; higher = less thermal stabilization by MBE1 (negative = stabilized by MBE1)
# Details: A375
Target,melting temperature shift (MBE1 concentration: 1 uM) [°C],melting temperature shift (MBE1 concentration: 100 nM) [°C]
ZDHHC5 (UniProt Q9C0B5),-1.09,
UniProt Q9BZM5,,-5.74
ADNP (UniProt Q9H2P0),-0.263,-0.282
CEP44 (UniProt Q9C0F1),-0.287,
UniProt Q9H4G4,,-0.874
UniProt Q9H6L5,-2.6,
COMMD4 (UniProt Q9H0A8),-0.128,0.531
UniProt Q9H7B2,0.623,1.07
UniProt Q9H0N5,-3.04,
UniProt Q9BZ72,,1.24
NIF3L1 (UniProt Q9GZT8),-2.52,
UniProt Q9H2Y7,-0.653,-0.583
UniProt Q9H5V8,,-8.02
PPA2 (UniProt Q9H2U2),0.452,-1.05
ECT2 (UniProt Q9H8V3),-0.0577,-0.705
HAUS4 (UniProt Q9H6D7),-1.44,-0.118
AMBRA1 (UniProt Q9C0C7),-0.306,-0.47
MRPL13 (UniProt Q9BYD1),-0.714,-0.0855
UniProt Q9C0D7,,-0.183
RAB3GAP2 (UniProt Q9H2M9),-0.767,-0.913
PITHD1 (UniProt Q9GZP4),-2.42,
MRPL18 (UniProt Q9H0U6),1.74,-0.421
UniProt Q9H8S9,0.0402,-0.67
UniProt Q9H5Y7,,2.54
HDHD2 (UniProt Q9H0R4),-1.82,

Target,melting temperature shift (MBE1 concentration: 1 uM) [°C],melting temperature shift (MBE1 concentration: 100 nM) [°C]
UniProt Q9H2F5,,0.0916
FRMD8 (UniProt Q9BZ67),1.32,1.8
GAN (UniProt Q9H2C0),2.82,0.805
EGLN1 (UniProt Q9GZT9),1.79,0.995
UniProt Q9H7N4,-1.69,-2.33
TANGO6 (UniProt Q9C0B7),0.403,1.04
GGNBP2 (UniProt Q9H3C7),0.526,-0.899
CDC42EP4 (UniProt Q9H3Q1),0.104,-1.57
UBE2Z (UniProt Q9H832),0.147,-0.235
BICC1 (UniProt Q9H694),-1.87,
WDR26 (UniProt Q9H7D7),-0.202,-0.104
API5 (UniProt Q9BZZ5),-0.121,-0.168
ATG5 (UniProt Q9H1Y0),-0.148,-0.268
MRPL4 (UniProt Q9BYD3),-0.0488,-0.586
COMMD5 (UniProt Q9GZQ3),-0.443,-0.436
ANTXR1 (UniProt Q9H6X2),1.28,1.82
UniProt Q9BYI3,-1.29,-1.78
NOL6 (UniProt Q9H6R4),-0.56,-0.866
ASPSCR1 (UniProt Q9BZE9),0.592,0.277
TRIT1 (UniProt Q9H3H1),-0.545,-0.48
XPO4 (UniProt Q9C0E2),0.0794,-0.621
WNK1 (UniProt Q9H4A3),-0.239,-0.387
UNC45A (UniProt Q9H3U1),-0.349,-1.12
UniProt Q9H147,-0.73,-0.833
UniProt Q9H6A9,0.763,-0.434

# Retrieved one by one from above, four records:
Target,melting temperature shift (MBE1 concentration: 1 uM) [°C],melting temperature shift (MBE1 concentration: 100 nM) [°C]
TRIT1 (UniProt Q9H3H1),-0.545,-0.48
TANGO6 (UniProt Q9C0B7),0.403,1.04
COMMD5 (UniProt Q9GZQ3),-0.443,-0.436
GAN (UniProt Q9H2C0),2.82,0.805

# Next part:

Target,melting temperature shift (MBE1 concentration: 1 uM) [°C],melting temperature shift (MBE1 concentration: 100 nM) [°C]
UniProt Q9H7H0,1.36,0.281
GHITM (UniProt Q9H3K2),-0.449,-2.07
UniProt Q9H2G4,-0.98,-0.75
KAT8 (UniProt Q9H7Z6),0.032,-1.3
DERL2 (UniProt Q9GZP9),0.318,-1.24
C11ORF54 (UniProt Q9H0W9),-1.11,0.0378
UniProt Q9H8K7,0.751,-0.107
UniProt Q9H4L4,-0.0448,-0.205
UniProt Q9C004,17.5,-0.142
VPS33B (UniProt Q9H267),-0.953,-0.823
TMX4 (UniProt Q9H1E5),0.511,-0.939
OSBPL3 (UniProt Q9H4L5),-0.0769,-0.952
UniProt Q9H869,-0.25,-0.0384
UNC93B1 (UniProt Q9H1C4),0.912,-0.416
SLC38A1 (UniProt Q9H2H9),0.131,-0.0174
MRPL46 (UniProt Q9H2W6),0.861,0.806
UniProt Q9H7X7,-0.588,-0.113
OSBPL2 (UniProt Q9H1P3),-0.414,-0.781
UniProt Q9H706,-0.0611,0.556
ACAD9 (UniProt Q9H845),0.623,-1.14
DHX36 (UniProt Q9H2U1),0.922,1.34
LNP (UniProt Q9C0E8),-2.79,-2.11
TOR3A (UniProt Q9H497),0.443,-1.51
FAM83D (UniProt Q9H4H8),0.348,-0.776
